PubChem BioAssay AID1508597, Cure First, 2020
Shown is an unselected part of the about 2,100 reagents, under one of the conditions tested. 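Calls flag viability under 80% in either arm, not effects specific to rucaparib; the reference for percent is not stated.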 Reagents against one gene are numbered here. A reagent listed more than once was tested more than once; the source does not tell the runs apart. The record does not give: the 100% reference.

- Assay: 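Genes whose silencing sensitises or protects ovarian cancer cells against rucaparib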 (primary screen)
- Cell system: human ovarian carcinoma lines grown from tumours: OCI-P5x (papillary serous) and OCI-C5x (clear cell)
- Knock-down reagent: siRNA pool against human genes, 1.25 pmol siRNA per well
- Timing: 72 h or 96 h, depending on the cell culture
- Challenge: rucaparib 20 µM (about IC30) or vehicle, present until read-out
- Rucaparib or vehicle: Rucaparib
- Cell line: OCI-C5x (clear cell)
- Read-out: 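ATP luminescence measured at 72 or 96 h according to the culture, then normalised and expressed as percent viability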
- Scale: viability, normalised: higher = more viable cells remaining
- Call rule: 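a well counts as a hit if its normalised viability is under 80 percent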
- Meaning of the calls: active = viability under 80%; inactive = viability 80% or more

RPA2 (GeneID 6118), technical replicate 1
- viability, normalised (%): 55.8
- Outcome: active

RPA2 (GeneID 6118), technical replicate 2
- viability, normalised (%): 46.4
- Outcome: active

RPA2 (GeneID 6118), technical replicate 3
- viability, normalised (%): 51.1
- Outcome: active

CDK12 (GeneID 51755) #1, technical replicate 1
- viability, normalised (%): 47.6
- Outcome: active

CDK12 (GeneID 51755) #1, technical replicate 2
- viability, normalised (%): 44.8
- Outcome: active

CDK12 (GeneID 51755) #1, technical replicate 2
- viability, normalised (%): 56
- Outcome: active

CDK12 (GeneID 51755) #1, technical replicate 3
- viability, normalised (%): 60.5
- Outcome: active

CDK12 (GeneID 51755) #1, technical replicate 3
- viability, normalised (%): 53.9
- Outcome: active

CDK12 (GeneID 51755) #2, technical replicate 1
- viability, normalised (%): 51.8
- Outcome: active

CDK12 (GeneID 51755) #2, technical replicate 2
- viability, normalised (%): 50.9
- Outcome: active

CDK12 (GeneID 51755) #2, technical replicate 3
- viability, normalised (%): 34
- Outcome: active

ITGA4 (GeneID 3676), technical replicate 1
- viability, normalised (%): 36.6
- Outcome: active

ITGA4 (GeneID 3676), technical replicate 2
- viability, normalised (%): 34.8
- Outcome: active

ITGA4 (GeneID 3676), technical replicate 3
- viability, normalised (%): 36.2
- Outcome: active

PRMT1 (GeneID 3276), technical replicate 1
- viability, normalised (%): 64.2
- Outcome: active

PRMT1 (GeneID 3276), technical replicate 2
- viability, normalised (%): 50.9
- Outcome: active

PRMT1 (GeneID 3276), technical replicate 3
- viability, normalised (%): 40.7
- Outcome: active

DNMT3L (GeneID 29947), technical replicate 1
- viability, normalised (%): 59.2
- Outcome: active

DNMT3L (GeneID 29947), technical replicate 2
- viability, normalised (%): 42.6
- Outcome: active

DNMT3L (GeneID 29947), technical replicate 3
- viability, normalised (%): 39.1
- Outcome: active

CCT2 (GeneID 10576), technical replicate 1
- viability, normalised (%): 45.4
- Outcome: active

CCT2 (GeneID 10576), technical replicate 2
- viability, normalised (%): 49.7
- Outcome: active

CCT2 (GeneID 10576), technical replicate 3
- viability, normalised (%): 39.4
- Outcome: active

ROS1 (GeneID 6098), technical replicate 1
- viability, normalised (%): 52.2
- Outcome: active

ROS1 (GeneID 6098), technical replicate 2
- viability, normalised (%): 68.5
- Outcome: active

ROS1 (GeneID 6098), technical replicate 3
- viability, normalised (%): 55.2
- Outcome: active

RAD18 (GeneID 56852), technical replicate 1
- viability, normalised (%): 33.6
- Outcome: active

RAD18 (GeneID 56852), technical replicate 1
- viability, normalised (%): 65.2
- Outcome: active

RAD18 (GeneID 56852), technical replicate 2
- viability, normalised (%): 54.7
- Outcome: active

RAD18 (GeneID 56852), technical replicate 2
- viability, normalised (%): 48.7
- Outcome: active

RAD18 (GeneID 56852), technical replicate 3
- viability, normalised (%): 46.4
- Outcome: active

RAD18 (GeneID 56852), technical replicate 3
- viability, normalised (%): 48
- Outcome: active
